Laboratory results taken from PubChem BioAssay AID504847 (National Center for Advancing Translational Sciences (NCATS), 2011).
Where “and” joins values, the source holds several entries; their conditions need not be identical. Equal entries are not always repeated. Out of some 400,000 compounds screened, about 3,700 (0.93%) were called active. Inconclusive means that the source gave no clear call. Such entries were picked first, then a sample of the others. The call rests on the fitted dose curve; in most records, active means well fitted inhibition curve with a large enough effect; inconclusive means small, poorly fitted or top-dose-only effect, or another doubt; inactive means no such curve, though single readings can be large or run the other way. A potency beside an inconclusive call is a rough fit, not a confirmed value.

Sequences of proteins named here, by UniProt entry; tags and fusion partners are left off. A change or cut given only in a name is not applied to a line headed by its entry.
UniProt P11473: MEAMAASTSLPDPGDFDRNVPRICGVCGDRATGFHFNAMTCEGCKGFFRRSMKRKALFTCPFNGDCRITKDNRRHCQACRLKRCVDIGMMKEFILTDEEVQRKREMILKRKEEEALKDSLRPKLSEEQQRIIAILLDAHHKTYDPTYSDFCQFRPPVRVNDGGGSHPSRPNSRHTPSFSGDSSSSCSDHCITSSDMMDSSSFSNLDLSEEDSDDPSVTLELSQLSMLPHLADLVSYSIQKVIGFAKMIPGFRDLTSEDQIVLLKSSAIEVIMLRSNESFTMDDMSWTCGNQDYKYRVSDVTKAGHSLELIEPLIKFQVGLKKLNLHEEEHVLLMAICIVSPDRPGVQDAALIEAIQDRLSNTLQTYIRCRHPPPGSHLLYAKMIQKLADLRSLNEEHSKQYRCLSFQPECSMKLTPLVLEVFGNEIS

Biological target: Vitamin D3 receptor (Homo sapiens) (UniProt P11473)
Experiment: Inhibitors of the vitamin D receptor (VDR): qHTS
Conditions: VDR-SRC2-3 peptide fluorescence polarization, 2 h; max response, negative = inhibition: active compounds read low
Outline: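 Fluorescence polarization assay of small-molecule disruption of VDR binding to coregulator peptide SRC2-3. Compounds and controls pin-transferred, then read after 2 h incubation at ambient room temperature.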
On the % scale 0 is the no-effect control and ±100 the full control effect; potency means the concentration at half of the fitted maximal effect.

Row | Compound | Potency | max response, negative = inhibition
1 | Cc1ccc(Nc2nc(Nc3ccc(Cl)cc3)nc(N3CCOCC3)n2)cc1 | inconclusive: 100 µM [inhibitor, single point] | 
2 | O=[N+]([O-])c1cccc(/C([O-])=C(/C(=S)Nc2ccccc2)[n+]2ccccc2)c1 | inconclusive: 35.5 µM [inhibitor, partial curve, poor fit] | 
3 | C[C@H]1CN(S(=O)C(C)(C)C)[C@H](CCO)/C1=C\CCO (stereo not given in full) |  | inactive: -17.2%
4 | CN(C)CCCn1cc(C2=C(c3c[nH]c4ccccc34)C(=O)NC2=O)c2ccccc21 | inconclusive: 89.1 µM [inhibitor, partial curve, poor fit] | 
5 | O=C(O)Cn1cc(/C=C/[N+](=O)[O-])c2ccccc21 | inconclusive: 79.4 µM [inhibitor, single point] | 
6 | CC(C)c1cc2c(c(O)c1O)[C@@]13CCCC(C)(C)C1CC2OC3=O (stereo not given in full) | inconclusive: 89.1 µM [inhibitor, single point] | 
7 | Cc1ccc(/C(O)=C2/C(=O)C(=O)N(CC(=O)O)C2c2ccc([N+](=O)[O-])cc2)cc1 (stereo not given) | inconclusive: 5.62 µM [inhibitor, partial curve, poor fit] | 
8 | O=C(O)c1ccc(NC(=O)c2ccccc2NC(=O)c2cccc(F)c2)cc1 |  | inactive: -1.91%
9 | Cc1ccccc1Cn1c(=O)n(CCCCC(=O)NCc2ccccc2Cl)c(=O)c2ccccc21 |  | inactive: -5.65%
10 | Cc1cc(C(=O)COC(=O)CNS(=O)(=O)c2ccc3ccccc3c2)c(C)n1-c1ccccc1 | inconclusive: 28.2 µM [inhibitor, partial curve, poor fit] | 
11 | O=C(NCc1ccccc1Cl)c1ccc(NC(=O)c2nsc3ccccc23)cc1 |  | inactive: 1.12%
12 | CC(=O)N1CCC2(CCCN(c3cccc(-c4ccccc4)c3)C2)CC1 | inconclusive: 35.5 µM [inhibitor, full curve] | 
13 | COc1ccc(N2CCN(CC(=O)Nc3ccc(C)cc3)CC2)cc1 | inconclusive: 112 µM [inhibitor, partial curve, poor fit] | 
14 | COc1ccc(C(=O)NCCCNC(=O)c2cc3ccccc3[nH]2)cc1OC | inconclusive: 89.1 µM [inhibitor, single point] | 
15 | CC(C)C(=O)N(c1ccc2oc(=O)sc2c1)S(=O)(=O)c1ccccc1 | active: 79.4 µM | 
16 | COc1ccccc1CCNC(=O)C(=O)c1cn(CC(=O)N2CCOCC2)c2ccccc12 | inconclusive: 39.8 µM [inhibitor, single point] | 
17 | Nc1cc(Nc2ccc(Br)cc2)nc(N)n1 | active: 44.7 µM | 
18 | CCN(CC)CC(O)COCCC12CC3CC(CC(C3)C1)C2 (stereo not given) |  | inactive: 10.1%
19 | O=C(CSC1=NS(=O)(=O)c2ccccc21)Nc1ccccc1 | active: 15.8 µM | 
20 | COc1ccc(OCC(=O)Nc2ccc(NC(=O)c3cccs3)cc2)cc1 | inconclusive: 89.1 µM [inhibitor, single point] | 
21 | Cc1ccc(-c2nc3cnccn3c2Nc2ccccc2)o1 | inconclusive: 89.1 µM [inhibitor, partial curve, poor fit] | 
22 | COc1ccc(CC(=O)OCC(=O)Nc2ccc(Cl)c(S(=O)(=O)N(C)C)c2)cc1 | inconclusive: 89.1 µM [inhibitor, partial curve, poor fit] | 

Row | Compound | Potency | max response, negative = inhibition
23 | Cc1ccc(NC(=O)Cn2sc3nc(C)cc(C)c3c2=O)c(Cl)c1 | inconclusive: 20 µM [inhibitor, partial curve, poor fit] | 
24 | CCOC(=O)c1c(C)[nH]c(C)c1S(=O)(=O)NCC(=O)Nc1ccc(CC)cc1 |  | inactive: 20%
25 | COc1ccc(CNS(=O)(=O)c2ccc(N3CCCC3)cc2Br)cc1 | inconclusive: 100 µM [inhibitor, partial curve, poor fit] | 
26 | CCCc1cc(=S)n2c([nH]c3ccccc32)c1C#N | inconclusive: 89.1 µM [inhibitor, partial curve, poor fit] | 
27 | FC(F)(F)c1cc(NC(=S)Nc2ccc3cc4ccccc4cc3c2)cc(C(F)(F)F)c1 | active: 22.4 µM | 
28 | COc1ccc(CNc2cc(-c3ccccc3OC)ncn2)c(OC)c1 | inconclusive: 56.2 µM [inhibitor, partial curve, poor fit] | 
29 | S=C(Cc1cccnc1)N1CCOCC1 | inconclusive: 89.1 µM [inhibitor, single point] | 
30 | CN1CCN(S(=O)(=O)c2ccc(N3CCc4ccccc4C3)nc2)CC1 | inconclusive: 56.2 µM [inhibitor, partial curve, poor fit] | 
31 | Cc1cc(NC(=O)CC(C)C)c(=O)n(Cc2cccc(F)c2)c1 | inconclusive: 56.2 µM [inhibitor, partial curve, poor fit] | 
32 | COC(=O)c1sc(NC(=O)c2cc(-c3ccccc3)nc3ccccc23)c(C#N)c1C | inconclusive: 20 µM [inhibitor, partial curve, poor fit] | 
33 | O=c1[nH]c(/C=C\c2cccc(Cl)c2)nc(O)c1[N+](=O)[O-] | active: 28.2 µM | 
34 | CC(C1CC2CCC1C2)n1c(-c2ccco2)n[nH]c1=S (stereo not given) | active: 79.4 µM | 
35 | O=C(NCCc1c[nH]c2ccccc12)c1cccc(S(=O)(=O)Nc2ccccc2Cl)c1 | inconclusive: 100 µM [inhibitor, single point] | 
36 | O=CC1=C(N2CCOCC2)/C(=C/c2ccc(Cl)cc2)CC1 | inconclusive: 79.4 µM [inhibitor, partial curve] | 
37 | NC(=N\N=CCc1ccccc1)/C(N)=N/N=CCc1ccccc1 |  | inactive: 2.29%
38 | COc1ccc(-n2nnnc2S(=O)(=O)CC(=O)N2CCCCC2)cc1 | inconclusive: 44.7 µM [inhibitor, partial curve] | 
39 | Cc1nn(-c2ccccc2)c(C)c1/C=N/n1c(-c2ccccc2Br)n[nH]c1=S |  | inactive: -16.2%
40 | O=C(NC(C(=O)N/N=C/c1cc([N+](=O)[O-])ccc1O)c1n[nH]c(=O)c2ccccc12)c1ccccc1 (stereo not given) |  | inactive: 4.72%
41 | CN(C)[C@@H]1C(=O)C(C(N)=O)=C(O)[C@@]2(O)C(=O)C3=C(O)c4c(O)ccc(Cl)c4[C@@H](O)[C@H]3C[C@@H]12 | inconclusive: 44.7 µM [inhibitor, partial curve] | 
42 | CS(=O)(=O)N(CC(=O)NCc1ccc2c(c1)OCO2)Cc1ccccc1 | inconclusive: 28.2 µM [inhibitor, partial curve, poor fit] | 
43 | O=C(O)c1ccc(NS(=O)(=O)c2cccc(S(=O)(=O)c3ccc(Cl)c(Cl)c3)c2)cc1 | inconclusive: 89.1 µM [inhibitor, single point] | 
44 | COc1c(C=O)c(O)cc2c1C(=O)c1ccccc1C2=O | active: 10 µM and active: 7.08 µM | 

Among those listed so far, these have a furan ring, fused or not:
Row | Compound | Potency | max response, negative = inhibition
21 | Cc1ccc(-c2nc3cnccn3c2Nc2ccccc2)o1 | inconclusive: 89.1 µM [inhibitor, partial curve, poor fit] | 
34 | CC(C1CC2CCC1C2)n1c(-c2ccco2)n[nH]c1=S (stereo not given) | active: 79.4 µM | 

(listing goes on)

Row | Compound | Potency | max response, negative = inhibition
45 | Clc1ccc(-n2nnnc2Sc2ncnc3sccc23)cc1 | active: 79.4 µM | 
46 | COc1ccc(Nc2ccc([N+](=O)[O-])cn2)cn1 | inconclusive: 89.1 µM [inhibitor, single point] | 
47 | COc1ccc(N2CCN(c3ncnc4scc(-c5ccc(C)cc5)c34)CC2)cc1 |  | inactive: 25.6%
48 | CC1=C(C(=O)Nc2ccccc2)C(c2cccs2)n2nc(SCc3ccccc3F)nc2N1 (stereo not given) | inconclusive: 0.631 µM [inhibitor, full curve, poor fit] | 
49 | Nn1cnnc1N/N=C\c1ccc(-c2ccccc2[N+](=O)[O-])o1 | inconclusive: 70.8 µM [inhibitor, partial curve] | 
50 | CCOc1cc(C(c2c(O)nc(SC)[nH]c2=O)c2c(O)nc(SC)[nH]c2=O)ccc1O | inconclusive: 17.8 µM [inhibitor, single point] | 
51 | Cc1nn(-c2ccccc2)c(Cl)c1/C=C/C(=O)c1ccccc1 | inconclusive: 79.4 µM [inhibitor, partial curve] | 
52 | Cc1nc2ccn(Cc3cccs3)c(=O)c2cc1C(=O)Nc1ccccc1 |  | inactive: -0.234%
53 | O=C1CSC(=S)N1N=Cc1c(O)ccc2ccccc12 | inconclusive: 89.1 µM [inhibitor, single point] | 
54 | Cc1cc(C(=O)NNC(=O)/C=C/c2ccco2)c(C)o1 | inconclusive: 89.1 µM [inhibitor, single point] | 
55 | CCOc1c2ccc(C(=O)NCC34CC5CC(CC(C5)C3)C4)cc2nn1CC | inconclusive: 100 µM [inhibitor, single point] | 
56 | COc1ccccc1-c1nc(N(C)C)c2ccccc2n1 | inconclusive: 50.1 µM [inhibitor, partial curve] | 
57 | O=C1/C(=C/C=C/c2ccco2)SC(=S)N1c1ccc(O)cc1 |  | inactive: -25.7%
58 | COc1ccc(C2(CNC(=O)C(=O)Nc3ccc(F)cc3)CCCC2)cc1OC |  | inactive: -6.35%
59 | CN(C)CCCn1c(=S)[nH]c2sc3c(c2c1=O)CCCC3 | inconclusive: 89.1 µM [inhibitor, single point] | 
60 | Cc1ccc(NS(=O)(=O)c2ccc3c(c2)CCCN3C(=O)C2CCC2)c(C)c1 |  | inactive: -5.83%
61 | CCOC(=O)c1sc(N2C(=O)C(O)=C(C(=O)c3ccco3)C2c2cccc([N+](=O)[O-])c2)nc1C (stereo not given) | active: 70.8 µM | 
62 | COc1cccc(C2CC(=O)N3CN(c4cccc(Cl)c4C)CSC3=C2C#N)c1OC (stereo not given) | active: 22.4 µM | 
63 | Cc1ccc(-c2cn3c(n2)sc2cc(C(=O)NC(C)C45CC6CC(CC(C6)C4)C5)ccc23)cc1 (stereo not given) |  | inactive: -2.06%
64 | Cc1ccccc1C1CC(=O)Oc2ccc(O)cc21 (stereo not given) | inconclusive: 126 µM [inhibitor, partial curve] | 
65 | Cn1c(=O)[nH]c(=O)c2c1nc(N1CCCCC1)n2C/C=N/NC(=O)c1cc(Br)ccc1O | inconclusive: 89.1 µM [inhibitor, partial curve, poor fit] | 

Whole records, looked up by structure.
`Cc1ccc(-c2cn3c(n2)sc2cc(C(=O)NC(C)C45CC6CC(CC(C6)C4)C5)ccc23)cc1` (stereo not given) in the list: max response, negative = inhibition: inactive: -2.06%
`COc1ccc(C2(CNC(=O)C(=O)Nc3ccc(F)cc3)CCCC2)cc1OC` in the list: max response, negative = inhibition: inactive: -6.35%
